# Results published in US20110212954A1, “ALPHA-LIPOIC ACID DERIVATIVES AND THEIR USE IN DRUG PREPARATION” (priority 2008, published 2011).
# Some results were stated once for a whole list of compounds, not compound by compound.
# Experiment: Pharmacokinetic study in rats after oral administration of a single dose, HPLC-MS of plasma
# Assay type: in vivo
# Details: rat, single dose 48.5 μmol/kg
# Experimental: The bioavailability of some compounds synthesized (Examples 1a, 2, 2a, 3, 3a, 10, 15a, 16a and 24) was studied in rats after oral administration of a single dose (48.5 μmol/kg) and compared with the reference (R)- or (RS)-α-LA.
# Each treatment was carried out on groups of 6 male rats (Sprague-Dawley SD rat) per compound. At regular times, blood withdrawals were carried out for the measurement by HPLC-MS of the concentration of plasmatic α-LA (FIGS. 5, 7, 9) and of the residual compound administered (FIGS. 6, 8).
structure (smiles),measurement,value
"CCCCNC(=O)CCCCC1CCSS1 (racemic) [Example 2a, 5-[1,2]dithiolan-3-yl-pentanoic acid butylamide]",amount of non-hydrolysed compound in plasma (FIGS. 6 and 8),< 2 ng/mL
"CCCCNC(=O)CCCC[C@@H]1CCSS1 [Example 2, (R)-5-[1,2]dithiolan-3-yl-pentanoic acid butylamide]",amount of non-hydrolysed compound in plasma (FIGS. 6 and 8),< 2 ng/mL
"CC(=O)NCCNC(=O)CCCC[C@@H]1CCSS1 [Example 10, (R)-5-[1,2]dithiolan-3-yl-pentanoic acid(2-acetylamino-ethyl)-amide]",amount of non-hydrolysed compound in plasma (FIGS. 6 and 8),< 2 ng/mL
